Assay results published in the supplement of paper PMC6411743.
± gives the standard deviation of the averaged measurements. The list shows a part of the results, in another mix than the full data.

Protein sequences, listed by entry. Tags and fused reporters are not part of them. Lines headed by an entry give the natural chain unless they say otherwise; changes in a name come on top.
UniProt Q9NX63: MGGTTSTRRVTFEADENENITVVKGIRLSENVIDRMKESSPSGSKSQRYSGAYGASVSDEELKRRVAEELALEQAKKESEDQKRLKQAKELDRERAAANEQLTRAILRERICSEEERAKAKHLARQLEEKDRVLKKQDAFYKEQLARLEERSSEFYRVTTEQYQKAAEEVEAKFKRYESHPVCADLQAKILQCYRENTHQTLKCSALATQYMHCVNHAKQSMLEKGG
UniProt Q99613, whole entry, looked up: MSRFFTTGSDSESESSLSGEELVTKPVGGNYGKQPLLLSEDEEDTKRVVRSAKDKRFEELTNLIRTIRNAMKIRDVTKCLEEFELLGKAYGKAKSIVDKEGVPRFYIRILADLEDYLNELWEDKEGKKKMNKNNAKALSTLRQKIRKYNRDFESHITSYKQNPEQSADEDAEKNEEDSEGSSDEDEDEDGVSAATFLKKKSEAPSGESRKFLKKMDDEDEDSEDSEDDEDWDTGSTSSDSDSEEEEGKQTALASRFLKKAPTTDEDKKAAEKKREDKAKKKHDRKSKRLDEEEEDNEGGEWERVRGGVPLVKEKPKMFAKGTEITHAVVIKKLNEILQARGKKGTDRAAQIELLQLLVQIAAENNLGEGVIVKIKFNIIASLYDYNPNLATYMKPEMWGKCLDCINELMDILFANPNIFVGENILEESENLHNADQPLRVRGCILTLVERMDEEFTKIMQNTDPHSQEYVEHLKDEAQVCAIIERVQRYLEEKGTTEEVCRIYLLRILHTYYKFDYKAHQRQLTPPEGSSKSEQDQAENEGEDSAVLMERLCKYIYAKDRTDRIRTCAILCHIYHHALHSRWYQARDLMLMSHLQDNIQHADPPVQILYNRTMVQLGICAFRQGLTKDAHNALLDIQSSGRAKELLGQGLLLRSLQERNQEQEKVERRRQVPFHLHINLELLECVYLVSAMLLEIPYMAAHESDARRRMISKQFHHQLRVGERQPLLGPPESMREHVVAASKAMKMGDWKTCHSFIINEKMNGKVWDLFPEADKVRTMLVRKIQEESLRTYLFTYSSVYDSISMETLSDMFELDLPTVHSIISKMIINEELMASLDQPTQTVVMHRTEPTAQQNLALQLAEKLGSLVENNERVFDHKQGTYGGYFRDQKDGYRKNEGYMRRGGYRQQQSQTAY
UniProt O60636: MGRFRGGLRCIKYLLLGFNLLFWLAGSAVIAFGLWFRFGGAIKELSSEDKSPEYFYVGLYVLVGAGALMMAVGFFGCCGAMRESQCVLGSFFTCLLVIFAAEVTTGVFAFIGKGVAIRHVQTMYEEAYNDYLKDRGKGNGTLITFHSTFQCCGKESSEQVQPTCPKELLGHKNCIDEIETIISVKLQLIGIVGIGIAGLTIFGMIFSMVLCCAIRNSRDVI
UniProt Q8N4C6: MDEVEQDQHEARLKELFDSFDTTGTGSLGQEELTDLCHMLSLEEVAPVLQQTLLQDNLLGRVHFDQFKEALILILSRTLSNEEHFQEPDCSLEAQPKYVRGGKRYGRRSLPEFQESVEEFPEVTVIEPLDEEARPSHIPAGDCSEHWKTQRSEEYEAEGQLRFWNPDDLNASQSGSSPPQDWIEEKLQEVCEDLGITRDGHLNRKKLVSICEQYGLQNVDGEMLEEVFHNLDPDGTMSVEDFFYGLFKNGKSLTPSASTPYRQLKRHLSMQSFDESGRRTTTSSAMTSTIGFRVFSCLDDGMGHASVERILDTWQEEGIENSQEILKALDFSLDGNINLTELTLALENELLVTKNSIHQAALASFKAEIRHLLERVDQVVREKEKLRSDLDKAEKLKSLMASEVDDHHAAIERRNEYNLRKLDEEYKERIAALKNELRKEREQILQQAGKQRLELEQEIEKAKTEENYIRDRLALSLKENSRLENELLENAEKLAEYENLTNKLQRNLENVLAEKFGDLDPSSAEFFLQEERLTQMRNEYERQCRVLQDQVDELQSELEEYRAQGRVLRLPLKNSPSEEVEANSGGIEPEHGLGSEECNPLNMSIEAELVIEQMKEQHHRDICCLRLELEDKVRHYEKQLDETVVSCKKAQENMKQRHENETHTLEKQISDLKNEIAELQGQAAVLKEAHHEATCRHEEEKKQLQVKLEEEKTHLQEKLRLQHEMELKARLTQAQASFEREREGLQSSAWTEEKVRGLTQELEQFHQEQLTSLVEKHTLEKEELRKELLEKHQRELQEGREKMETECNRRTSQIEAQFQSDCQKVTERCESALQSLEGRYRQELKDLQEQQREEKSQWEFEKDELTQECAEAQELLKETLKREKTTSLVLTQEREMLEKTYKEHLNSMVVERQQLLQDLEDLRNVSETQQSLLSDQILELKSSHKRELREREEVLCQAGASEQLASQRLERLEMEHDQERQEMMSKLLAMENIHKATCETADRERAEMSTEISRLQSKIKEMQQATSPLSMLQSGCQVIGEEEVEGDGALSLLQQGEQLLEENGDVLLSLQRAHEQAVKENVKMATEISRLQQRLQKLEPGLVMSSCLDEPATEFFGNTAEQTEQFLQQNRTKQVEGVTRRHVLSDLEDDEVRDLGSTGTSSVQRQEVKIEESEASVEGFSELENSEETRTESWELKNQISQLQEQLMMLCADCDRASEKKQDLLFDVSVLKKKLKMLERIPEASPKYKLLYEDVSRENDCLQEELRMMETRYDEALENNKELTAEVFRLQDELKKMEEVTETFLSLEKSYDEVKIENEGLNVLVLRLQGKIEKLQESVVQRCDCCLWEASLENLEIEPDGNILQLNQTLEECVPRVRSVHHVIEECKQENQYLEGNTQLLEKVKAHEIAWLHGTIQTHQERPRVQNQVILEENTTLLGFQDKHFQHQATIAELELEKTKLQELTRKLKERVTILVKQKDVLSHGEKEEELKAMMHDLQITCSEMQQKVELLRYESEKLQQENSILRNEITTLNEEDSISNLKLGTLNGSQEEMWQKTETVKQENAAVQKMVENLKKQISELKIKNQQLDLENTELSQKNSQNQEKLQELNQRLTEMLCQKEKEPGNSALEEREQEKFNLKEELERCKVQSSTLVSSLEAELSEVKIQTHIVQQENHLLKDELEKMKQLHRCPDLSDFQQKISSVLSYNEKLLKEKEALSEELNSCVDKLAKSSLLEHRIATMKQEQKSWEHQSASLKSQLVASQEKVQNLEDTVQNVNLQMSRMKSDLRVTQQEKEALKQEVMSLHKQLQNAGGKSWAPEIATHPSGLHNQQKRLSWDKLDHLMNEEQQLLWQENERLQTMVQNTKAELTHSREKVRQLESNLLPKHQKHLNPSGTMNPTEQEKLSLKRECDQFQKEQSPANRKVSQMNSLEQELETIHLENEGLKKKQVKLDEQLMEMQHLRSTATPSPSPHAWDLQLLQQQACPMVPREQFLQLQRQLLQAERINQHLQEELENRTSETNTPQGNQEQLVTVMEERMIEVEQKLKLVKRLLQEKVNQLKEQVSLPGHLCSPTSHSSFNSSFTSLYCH
UniProt P13798: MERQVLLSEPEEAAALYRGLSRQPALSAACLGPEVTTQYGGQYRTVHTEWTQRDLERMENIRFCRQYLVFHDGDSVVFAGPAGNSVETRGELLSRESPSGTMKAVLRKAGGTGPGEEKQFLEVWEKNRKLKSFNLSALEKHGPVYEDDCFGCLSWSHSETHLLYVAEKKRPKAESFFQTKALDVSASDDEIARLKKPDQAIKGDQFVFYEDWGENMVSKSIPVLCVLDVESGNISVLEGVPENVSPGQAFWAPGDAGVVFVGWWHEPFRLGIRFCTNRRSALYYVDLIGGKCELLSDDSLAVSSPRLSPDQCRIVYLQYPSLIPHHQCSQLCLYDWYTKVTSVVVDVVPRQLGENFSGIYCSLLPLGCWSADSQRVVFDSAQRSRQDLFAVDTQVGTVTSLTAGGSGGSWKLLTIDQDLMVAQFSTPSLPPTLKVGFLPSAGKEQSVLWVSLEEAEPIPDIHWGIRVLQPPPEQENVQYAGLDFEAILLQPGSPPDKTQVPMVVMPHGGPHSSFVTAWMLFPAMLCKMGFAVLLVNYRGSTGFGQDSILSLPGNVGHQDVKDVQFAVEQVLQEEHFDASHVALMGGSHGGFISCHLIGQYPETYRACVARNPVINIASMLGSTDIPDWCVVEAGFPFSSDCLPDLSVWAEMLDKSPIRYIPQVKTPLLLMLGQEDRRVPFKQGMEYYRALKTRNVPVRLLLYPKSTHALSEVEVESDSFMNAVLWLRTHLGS
UniProt Q8WV99: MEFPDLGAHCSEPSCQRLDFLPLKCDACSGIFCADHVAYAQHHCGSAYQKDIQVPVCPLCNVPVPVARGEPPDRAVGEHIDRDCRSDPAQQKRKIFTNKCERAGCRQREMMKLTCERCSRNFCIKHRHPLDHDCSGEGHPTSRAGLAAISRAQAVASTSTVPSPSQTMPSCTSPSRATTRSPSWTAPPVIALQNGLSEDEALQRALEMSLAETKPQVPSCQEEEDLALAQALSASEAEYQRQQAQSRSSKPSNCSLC
UniProt O14832: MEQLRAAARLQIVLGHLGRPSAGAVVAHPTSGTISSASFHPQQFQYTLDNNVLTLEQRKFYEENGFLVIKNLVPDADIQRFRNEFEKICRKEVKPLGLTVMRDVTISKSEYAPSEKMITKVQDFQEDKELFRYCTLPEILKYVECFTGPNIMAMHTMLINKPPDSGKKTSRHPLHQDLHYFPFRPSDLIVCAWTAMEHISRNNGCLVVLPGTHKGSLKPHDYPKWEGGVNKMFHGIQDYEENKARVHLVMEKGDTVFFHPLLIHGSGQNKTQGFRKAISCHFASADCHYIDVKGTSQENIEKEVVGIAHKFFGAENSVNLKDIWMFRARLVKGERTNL
UniProt Q9Y4C2: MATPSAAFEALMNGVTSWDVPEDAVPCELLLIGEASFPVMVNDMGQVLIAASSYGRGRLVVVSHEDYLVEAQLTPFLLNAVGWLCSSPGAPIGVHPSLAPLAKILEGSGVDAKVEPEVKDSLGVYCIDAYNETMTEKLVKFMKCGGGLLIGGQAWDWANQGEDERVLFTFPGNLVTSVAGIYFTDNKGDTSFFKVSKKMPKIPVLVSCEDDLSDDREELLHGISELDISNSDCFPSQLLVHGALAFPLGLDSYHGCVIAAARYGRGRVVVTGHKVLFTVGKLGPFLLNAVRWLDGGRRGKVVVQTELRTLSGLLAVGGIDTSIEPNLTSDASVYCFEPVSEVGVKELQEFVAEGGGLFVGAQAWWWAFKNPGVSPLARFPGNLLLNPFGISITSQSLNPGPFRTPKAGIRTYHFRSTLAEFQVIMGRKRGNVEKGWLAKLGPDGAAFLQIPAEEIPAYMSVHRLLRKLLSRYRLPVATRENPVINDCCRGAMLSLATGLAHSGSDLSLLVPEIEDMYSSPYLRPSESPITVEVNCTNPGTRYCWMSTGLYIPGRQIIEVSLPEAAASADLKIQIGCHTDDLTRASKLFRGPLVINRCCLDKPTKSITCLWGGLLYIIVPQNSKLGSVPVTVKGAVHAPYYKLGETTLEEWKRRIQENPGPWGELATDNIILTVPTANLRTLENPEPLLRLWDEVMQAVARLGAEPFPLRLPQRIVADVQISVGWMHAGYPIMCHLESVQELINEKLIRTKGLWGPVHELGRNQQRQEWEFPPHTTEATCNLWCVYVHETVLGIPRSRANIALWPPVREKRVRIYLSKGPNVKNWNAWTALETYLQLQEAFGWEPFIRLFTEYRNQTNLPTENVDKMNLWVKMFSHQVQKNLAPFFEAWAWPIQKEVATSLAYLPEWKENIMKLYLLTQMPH

Compound: Nc1ncnc2c1ncn2[C@@H]1O[C@H](COP(=O)(O)OP(=O)(O)NP(=O)(O)O)[C@@H](O)[C@H]1O [adenylyl imidodiphosphate]
Assay: NP40-soluble protein abundance relative to vehicle (solubility fold change) (ratio); higher = more soluble protein in presence of AMP-PNP
Method in brief: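 Crude Jurkat lysate, prepared by Dounce homogenisation, was exposed to eight concentrations from 0.1 to 10 mM for 10 min at room temperature and then 3 min at 37 °C. Solubilisation used 0.8% NP40 with benzonase for 60 min at 4 °C, followed by ultracentrifugation and TMT labelling of the supernatant for LC-MS/MS. After vsn normalisation of intensities, each value is the fold change against the detergent-processed vehicle within each replicate, across three independent experiments.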

Target | NP40-soluble protein abundance (concentration: 1mM) | NP40-soluble protein abundance (concentration: 2mM) | NP40-soluble protein abundance (concentration: 4mM) | NP40-soluble protein abundance (concentration: 6mM) | NP40-soluble protein abundance (concentration: 8mM) | NP40-soluble protein abundance (concentration: 10mM)
A8MXF6 and related entries (UniProt Q9UNT1+Q9UBK7+B7ZBD5+A8MXF6) | 0.976 ± 0.05 | 1 ± 0.069 | 0.954 ± 0.019 | 0.977 ± 0.051 | 0.973 ± 0.048 | 0.954 ± 0.065
A2IDC6 and related entries (UniProt Q13084) | 0.961 ± 0.042 | 0.979 ± 0.081 | 0.916 ± 0.11 | 0.941 ± 0.12 | 0.91 ± 0.089 | 0.91 ± 0.085
FAM171A2 (UniProt A8MVW0) | 1 ± 0.012 | 1.01 ± 0.051 | 1.01 ± 0.013 | 1.05 ± 0.018 | 0.998 ± 0.027 | 1.019 ± 0.0036
C4B7M2 and related entries (UniProt Q96JI7) | 0.989 ± 0.011 | 0.988 ± 0.019 | 0.9763 ± 0.0049 | 0.985 ± 0.018 | 0.98 ± 0.023 | 0.97 ± 0.022
C9JJ19 and related entries (UniProt P82930) | 1.04 ± 0.015 | 1 ± 0.026 | 0.991 ± 0.067 | 0.974 ± 0.075 | 0.972 ± 0.055 | 0.979 ± 0.11
C9IY40 and related entries (UniProt Q5T653) | 0.972 ± 0.051 | 0.951 ± 0.034 | 0.966 ± 0.037 | 0.955 ± 0.038 | 0.962 ± 0.057 | 0.966 ± 0.059
B4DJL6 and related entries (UniProt Q96SY0) | 1.005 ± 0.0035 | 0.998 ± 0.022 | 1.04 ± 0.029 | 1.02 ± 0.042 | 1.01 ± 0.015 | 1.04 ± 0.038
C9JRZ6 and related entries (UniProt Q9NX63) | 1.03 ± 0.062 | 1.04 ± 0.044 | 0.954 ± 0.052 | 0.95 ± 0.1 | 0.95 ± 0.083 | 0.95 ± 0.1
D4Q8H0 and related entries (UniProt Q9NYL2+D4Q8H0) | 1.03 ± 0.031 | 1.02 ± 0.041 | 1.06 ± 0.012 | 1.01 ± 0.037 | 1.02 ± 0.036 | 1.03 ± 0.017
B5ME19 and related entries (UniProt Q99613+B5ME19) | 1.06 ± 0.066 | 1.07 ± 0.062 | 1.09 ± 0.098 | 1.15 ± 0.088 | 1.24 ± 0.12 | 1.29 ± 0.18
A6NEP9 and related entries (UniProt Q8NG11) | 1.002 ± 0.008 | 0.988 ± 0.043 | 0.962 ± 0.015 | 0.998 ± 0.031 | 0.943 ± 0.037 | 0.967 ± 0.023
D6R9Q5 and related entries (UniProt Q9UM13) | 0.999 ± 0.022 | 0.972 ± 0.018 | 1.01 ± 0.021 | 1.01 ± 0.04 | 1.01 ± 0.042 | 0.981 ± 0.042
B1AP13 and related entries (UniProt P08174) | 1.04 ± 0.046 | 1.03 ± 0.038 | 1.1 ± 0.062 | 1.09 ± 0.052 | 1.11 ± 0.072 | 1.15 ± 0.09
B0QXZ5 and related entries (UniProt O96015) | 1 ± 0.02 | 1.01 ± 0.047 | 0.983 ± 0.018 | 0.998 ± 0.021 | 0.996 ± 0.019 | 0.9826 ± 0.0082
B0QXZ9 and related entries (UniProt Q9UGU5) | 1.03 ± 0.061 | 1.07 ± 0.048 | 1.06 ± 0.048 | 1.09 ± 0.064 | 1.1 ± 0.069 | 1.13 ± 0.065
A8MU27 and related entries (UniProt P55854) | 1 ± 0.011 | 0.979 ± 0.037 | 0.946 ± 0.048 | 0.91 ± 0.033 | 0.897 ± 0.018 | 0.892 ± 0.063
C9JJ34 and related entries (UniProt P43487) | 0.989 ± 0.066 | 1.03 ± 0.081 | 0.924 ± 0.067 | 0.903 ± 0.02 | 0.911 ± 0.025 | 0.871 ± 0.05
B1AKP1 and related entries (UniProt O60636) | 1.04 ± 0.016 | 1.02 ± 0.019 | 1.034 ± 0.0076 | 1.02 ± 0.011 | 1.01 ± 0.029 | 1.01 ± 0.014
B5MCU0 (UniProt Q9Y2K5) | 0.998 ± 0.022 | 1 ± 0.024 | 1.01 ± 0.015 | 1.0031 ± 0.00071 | 0.9985 ± 0.0069 | 0.998 ± 0.0095
C9J066 and related entries (UniProt Q8N4C6) | 1.01 ± 0.047 | 1.02 ± 0.019 | 0.997 ± 0.031 | 1.07 ± 0.14 | 1.08 ± 0.16 | 1.04 ± 0.12
C9IY68 and related entries (UniProt Q9BQ75) | 1 ± 0.05 | 1 ± 0.081 | 1.02 ± 0.069 | 1.06 ± 0.073 | 1.06 ± 0.095 | 1.09 ± 0.1
RCCD1 (UniProt A6NED2) | 1.02 ± 0.028 | 1.05 ± 0.055 | 1.03 ± 0.064 | 1.07 ± 0.057 | 1.08 ± 0.036 | 1.09 ± 0.023
C9JEJ2 and related entries (UniProt P49585) | 1.01 ± 0.028 | 1.02 ± 0.022 | 1.02 ± 0.015 | 0.993 ± 0.027 | 1 ± 0.02 | 0.996 ± 0.01

An excerpt from above, reduced to NP40-soluble protein abundance (concentration: 2mM) and NP40-soluble protein abundance (concentration: 10mM).
Target	NP40-soluble protein abundance (concentration: 2mM)	NP40-soluble protein abundance (concentration: 10mM)
C9IY68 and related entries (UniProt Q9BQ75)	1 ± 0.081	1.09 ± 0.1
RCCD1 (UniProt A6NED2)	1.05 ± 0.055	1.09 ± 0.023

The listing continues:

Target | NP40-soluble protein abundance (concentration: 1mM) | NP40-soluble protein abundance (concentration: 2mM) | NP40-soluble protein abundance (concentration: 4mM) | NP40-soluble protein abundance (concentration: 6mM) | NP40-soluble protein abundance (concentration: 8mM) | NP40-soluble protein abundance (concentration: 10mM)
B4DQT1 and related entries (UniProt Q7L5Y9) | 0.98 ± 0.03 | 0.984 ± 0.052 | 0.978 ± 0.037 | 0.929 ± 0.081 | 0.928 ± 0.086 | 0.943 ± 0.11
C9J0E4 and related entries (UniProt P01040) | 1 ± 0.013 | 1.03 ± 0.032 | 1.018 ± 0.0088 | 0.997 ± 0.02 | 1.04 ± 0.096 | 1.01 ± 0.016
B8ZZU6 and related entries (UniProt P15336) | 0.998 ± 0.045 | 1 ± 0.091 | 0.986 ± 0.062 | 1.03 ± 0.035 | 1.05 ± 0.044 | 1.04 ± 0.059
C9JIF9 and related entries (UniProt P13798) | 0.953 ± 0.027 | 0.88 ± 0.061 | 0.915 ± 0.0095 | 0.903 ± 0.014 | 0.909 ± 0.022 | 0.871 ± 0.04
B4DEN4 and related entries (UniProt Q8WV99) | 0.991 ± 0.027 | 1.02 ± 0.063 | 1.01 ± 0.08 | 0.975 ± 0.026 | 0.985 ± 0.047 | 1 ± 0.081
B4DWF2 and related entries (UniProt Q9UKS7) | 0.968 ± 0.033 | 0.945 ± 0.044 | 0.947 ± 0.033 | 0.939 ± 0.047 | 0.944 ± 0.058 | 0.968 ± 0.048
D6RER5 and related entries (UniProt Q9NVA2) | 1.01 ± 0.024 | 1.005 ± 0.0071 | 0.964 ± 0.024 | 0.987 ± 0.023 | 0.9861 ± 0.0047 | 0.994 ± 0.025
C9JNV2 and related entries (UniProt P41223) | 1.04 ± 0.036 | 1.06 ± 0.046 | 1.08 ± 0.016 | 1.094 ± 0.0079 | 1.136 ± 0.0067 | 1.12 ± 0.045
KIAA1147 (UniProt A4D1U4) | 1.04 ± 0.028 | 1.03 ± 0.041 | 1.02 ± 0.032 | 0.993 ± 0.018 | 1 ± 0.034 | 0.994 ± 0.013
B1AL69 and related entries (UniProt Q7L3B6) | 0.999 ± 0.014 | 1.02 ± 0.036 | 0.967 ± 0.029 | 0.962 ± 0.017 | 0.955 ± 0.036 | 0.924 ± 0.034
D6RHH4 and related entries (UniProt P63244) | 0.947 ± 0.042 | 0.829 ± 0.14 | 0.903 ± 0.1 | 0.851 ± 0.03 | 0.843 ± 0.041 | 0.818 ± 0.089
B2RA97 and related entries (UniProt Q9Y5N5) | 1 ± 0.032 | 1 ± 0.014 | 0.982 ± 0.048 | 0.996 ± 0.042 | 1.016 ± 0.0014 | 1.01 ± 0.032
UniProt B4DLN1 | 0.9789 ± 0.0093 | 0.906 ± 0.044 | 0.961 ± 0.045 | 0.938 ± 0.059 | 0.993 ± 0.038 | 0.932 ± 0.049
A2RQR6 and related entries (UniProt Q96EI5) | 1.03 ± 0.025 | 1.08 ± 0.079 | 0.988 ± 0.052 | 1 ± 0.019 | 1.01 ± 0.014 | 1.02 ± 0.067
C9JA08 and related entries (UniProt Q96D46) | 0.969 ± 0.011 | 0.954 ± 0.018 | 0.953 ± 0.033 | 0.915 ± 0.019 | 0.911 ± 0.028 | 0.8882 ± 0.0053
D6RD47 and related entries (UniProt P62266) | 0.977 ± 0.053 | 0.934 ± 0.072 | 0.901 ± 0.11 | 0.893 ± 0.094 | 0.87 ± 0.13 | 0.937 ± 0.21
D3YTA9 and related entries (UniProt H7BYZ3+F6U1T9+P63098+D3YTA9) | 1.08 ± 0.015 | 1.16 ± 0.085 | 1.118 ± 0.0014 | 1.07 ± 0.011 | 1.07 ± 0.017 | 1.095 ± 0.0046
B1ALH6 and related entries (UniProt O14832) | 0.99 ± 0.012 | 1.02 ± 0.048 | 0.971 ± 0.032 | 0.963 ± 0.039 | 0.956 ± 0.041 | 0.951 ± 0.029
C9JJV1 and related entries (UniProt Q9Y5U2) | 1.01 ± 0.013 | 1.04 ± 0.076 | 1.01 ± 0.01 | 0.968 ± 0.047 | 0.951 ± 0.048 | 0.968 ± 0.068
C9J9F4 and related entries (UniProt Q9Y4C2) | 0.987 ± 0.022 | 0.976 ± 0.088 | 0.949 ± 0.043 | 0.951 ± 0.067 | 0.962 ± 0.063 | 0.944 ± 0.097
B1AQP1 and related entries (UniProt P22415) | 1.04 ± 0.031 | 1.13 ± 0.13 | 1.11 ± 0.065 | 1.09 ± 0.021 | 1.08 ± 0.017 | 1.14 ± 0.026
C9JKL2 and related entries (UniProt O95772) | 1.02 ± 0.019 | 1.04 ± 0.036 | 1.01 ± 0.016 | 0.989 ± 0.028 | 0.989 ± 0.019 | 1 ± 0.034

Looked up above.
Entry for C9JKL2 and related entries (UniProt O95772) under NP40-soluble protein abundance (concentration: 8mM): 0.989 ± 0.019
Entry for A2RQR6 and related entries (UniProt Q96EI5) under NP40-soluble protein abundance (concentration: 4mM): 0.988 ± 0.052
Entry for C9JRZ6 and related entries (UniProt Q9NX63) under NP40-soluble protein abundance (concentration: 8mM): 0.95 ± 0.083
